For the test, the target named is EZH2 (human (endogenous in Caco-2 and HuVEC)), Q15910. The experiment in a line: co-IP; Classic IP kit (Pierce); 1000 ug pre-cleared total cell lysate of Caco-2 cells or HuVECs incubated overnight at 4 °C with 10 ug anti-SIRT1 (Abcam ab7343) or anti-EZH2 (R&D AF4767) antibody; captured on protein A/G Sepharose; Western blot for SIRT1 or EZH2; both directions, both cell lines. As to conditions: remark: other sources report otherwise. In general terms: A western blot detects proteins with antibodies after separation by electrophoresis.

No constants are given. Whether binding was seen depends on the method and setting. In cells and extracts the contact can be indirect.

B1: SIRT1, Q96EB6 1-747 (protein)
chain: MADEAALALQPGGSPSAAGADREAASSPAGEPLRKRPRRDGPGLERSPGEPGGAAPEREVPAAARGCPGAAAAALWREAEAEAAAAGGEQEAQATAAAGEGDNGPGLQGPSREPPLADNLYDEDDDDEGEEEEEAAAAAIGYRDNLLFGDEIITNGFHSCESDEEDRASHASSSDWTPRPRIGPYTFVQQHLMIGTDPRTILKDLLPETIPPPELDDMTLWQIVINILSEPPKRKKRKDINTIEDAVKLLQECKKIIVLTGAGVSVSCGIPDFRSRDGIYARLAVDFPDLPDPQAMFDIEYFRKDPRPFFKFAKEIYPGQFQPSLCHKFIALSDKEGKLLRNYTQNIDTLEQVAGIQRIIQCHGSFATASCLICKYKVDCEAVRGDIFNQVVPRCPRCPADEPLAIMKPEIVFFGENLPEQFHRAMKYDKDEVDLLIVIGSSLKVRPVALIPSSIPHEVPQILINREPLPHLHFDVELLGDCDVIINELCHRLGGEYAKLCCNPVKLSEITEKPPRTQKELAYLSELPPTPLHVSEDSSSPERTSPPDSSVIVTLLDQAAKSNDDLDVSESKGCMEEKPQEVQTSRNVESIAEQMENPDLKNVGSSTGEKNERTSVAGTVRKCWPNRVAKEQISRRLDGNQYLFLPPNRYIFHGAEVYSDSEDDVLSSSSCGSNSDSGTCQSPSLEEPMEDESEIEEFYNGLEDEPDVPERAGGAGFGTDGDDQEAINEAISVKQEVTDMNYPSNKS
Take B1: the binding entry is on record as “no binding”.

Source of the values: article PMC4480908.
